Measured values reported in the supplement of paper PMC12067093, “Discovery and optimisation of a covalent ligand for TRIM25 and its application to targeted protein ubiquitination” (Chemical Science, 2025).
Some of the results follow.

Compound: CC1Cc2ccccc2N1C(=O)C1CCCN(C1)C(=O)CCl (mixture of isomers) [TRIM25 ligand 11 (diastereomer mixture)]
Assay: probe-labelled cysteine peptide fold change vs DMSO (competition) (log2 fold change); higher = less target engagement (more negative = stronger competition)
Conditions: THP-1, incubation time: 4 h
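Further: competitive chemoproteomic profiling in live THP-1 cells with an iodoacetamide desthiobiotin (IA-DTB) probe, comparing probe-labelled peptide intensities in compound-treated cells against DMSO-treated controls.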

Target	probe-labelled cysteine peptide fold change (10 µM)	probe-labelled cysteine peptide fold change (50 µM)
CTNND1_O60716_618_YQEAAPNVANNTGPHAASCFGAK (UniProt O60716)	-0.084	-0.137
DBR1_Q9UK59_9_VAVAGCCHGELDK (UniProt Q9UK59)	-0.029	0.0267
CTSD_P07339_286_AYWQVHLDQVEVASGLTLCK (UniProt P07339)	0.06	-0.0729
DCTN1_Q14203_1252_VTFSCAAGFGQR (UniProt Q14203)	0.122	-0.00591
DARS_P14868_259_QMCICADFEK (UniProt P14868)	0.098	0.0803
CXorf38_Q8TB03_300_LDSLCLHQK (UniProt Q8TB03)	-0.0133	-0.0165
CUL7_Q14999_1201_AAFLLALQNGCAGALLK (UniProt Q14999)	-0.304	-0.245
CTSB_P07858_211_ICEPGYSPTYK (UniProt P07858)	-0.112	-0.138
CTPS1_P17812_218_CSNPLDTSVK (UniProt P17812)	0.0718	0.108
CUL1_Q13616_149_ECDEGR (UniProt Q13616)	0.194	0.0376
DCTD_P32321_83_LDTKYPYVCHAELNAIMNK (UniProt P32321)	-0.364	-0.419
CUL4A_Q13619_289_VITYLDHSTQKPLIACVEK (UniProt Q13619)	-0.36	-0.171
CUL9_Q8IWT3_76_AEHILMWLSAPEVYANCPGLLGER (UniProt Q8IWT3)	-0.0293	-0.0811
CTSA_P10619_240_LWSSLQTHCCSQNK (UniProt P10619)	0.0876	0.0379
CYLD_Q9NQC7_934_RIQGCAR (UniProt Q9NQC7)	-0.0179	-0.0778
CUL4B_Q13620_533_DKVDHIIDICFLK (UniProt Q13620)	0.126	0.16
CYB5R3_P00387_274_DHLPPPEEEPLVLMCGPPPMIQYACLPNLDHVGHPTER (UniProt P00387)	0.0315	-0.0387
CYB5R4_Q7L1T6_278_CQLISK (UniProt Q7L1T6)	0.02	-0.000551
DCP2_Q8IU60_140_VNKEEAPHDCAAR (UniProt Q8IU60)	-0.229	-0.311
CUL3_Q13618_298_TEDLGCMYK (UniProt Q13618)	0.0181	-0.0783

Target	probe-labelled cysteine peptide fold change (10 µM)	probe-labelled cysteine peptide fold change (50 µM)
DCAF13_Q9NV06_71_DGVNCLAK (UniProt Q9NV06)	-0.0414	-0.0669
DAPK1_P53355_484_YGHADVAQLLCSFGSNPNIQDKEEETPLHCAAWHGYYSVAK (UniProt P53355)	0.091	-0.153
CXXC1_Q9P0U4_564_VPADEVCGCPLVR (UniProt Q9P0U4)	0.00234	-0.0541
CYLD_Q9NQC7_106_FTELLLAITNCEER (UniProt Q9NQC7)	0.0319	-0.0637
CYFIP1_Q7L576_428_DCPDSAEEYER (UniProt Q7L576)	0.0662	0.0256
DACH1_Q9UI36_279_DFETLYNDCTNASSR (UniProt Q9UI36)	0.337	0.141
CTSS_P25774_180_GCNGGFMTTAFQYIIDNK (UniProt P25774)	-0.0546	-0.156
DCLRE1C_Q96SD1_333_DFLSYLCPVNAYPNVIPVGTTMDK (UniProt Q96SD1)	-0.0709	0.051
DCLRE1C_Q96SD1_359_VVEILKPLCR (UniProt Q96SD1)	-0.0193	-0.0751
CTR9_Q6PD62_363_ENASQCFEK (UniProt Q6PD62)	0.0576	0.18
CUL9_Q8IWT3_176_ETGALDLLMHMLCNPEPQIR (UniProt Q8IWT3)	0.0269	-0.195
CTTNBP2NL_Q9P2B4_186_QLSSMLVLECK (UniProt Q9P2B4)	0.245	-0.0899
DAP3_P51398_139_TLSLCHVIHFCAK (UniProt P51398)	0.249	0.208
DBR1_Q9UK59_36_RGPGPVDLLLCCGDFQAVR (UniProt Q9UK59)	-0.0277	0.219
CTSS_P25774_213_CQYDSK (UniProt P25774)	0.00868	-0.148
CYTH1_Q15438_323_KPNCFELYIPDNK (UniProt Q15438)	0.0705	-0.0122
DCP1A_Q9NPI6_39_QHDPYITSIADLTGQVALYTFCPK (UniProt Q9NPI6)	0.179	0.205
DBR1_Q9UK59_347_VPCNFSVTAACYDPSKPQTQMQLIHR (UniProt Q9UK59)	-0.209	-0.211
DAZAP1_Q96EP5_85_NIDPKPCTPR (UniProt Q96EP5)	-0.189	-0.0218

As a short view, some entries already given:
Target	probe-labelled cysteine peptide fold change (10 µM)	probe-labelled cysteine peptide fold change (50 µM)
CTSS_P25774_180_GCNGGFMTTAFQYIIDNK (UniProt P25774)	-0.0546	-0.156
DCLRE1C_Q96SD1_333_DFLSYLCPVNAYPNVIPVGTTMDK (UniProt Q96SD1)	-0.0709	0.051
DCLRE1C_Q96SD1_359_VVEILKPLCR (UniProt Q96SD1)	-0.0193	-0.0751
CTR9_Q6PD62_363_ENASQCFEK (UniProt Q6PD62)	0.0576	0.18
CUL9_Q8IWT3_176_ETGALDLLMHMLCNPEPQIR (UniProt Q8IWT3)	0.0269	-0.195
CTTNBP2NL_Q9P2B4_186_QLSSMLVLECK (UniProt Q9P2B4)	0.245	-0.0899
DAP3_P51398_139_TLSLCHVIHFCAK (UniProt P51398)	0.249	0.208
DBR1_Q9UK59_36_RGPGPVDLLLCCGDFQAVR (UniProt Q9UK59)	-0.0277	0.219
CTSS_P25774_213_CQYDSK (UniProt P25774)	0.00868	-0.148
CYTH1_Q15438_323_KPNCFELYIPDNK (UniProt Q15438)	0.0705	-0.0122
DCP1A_Q9NPI6_39_QHDPYITSIADLTGQVALYTFCPK (UniProt Q9NPI6)	0.179	0.205
